Measurements as given in PubChem BioAssay AID445 (National Center for Advancing Translational Sciences (NCATS), 2006).
The other results are listed elsewhere or left out. Further columns of the screen follow, without active or inactive calls. Most of these compounds were active or inconclusive in the main read-out, so they are no random draw. Words in brackets tell the shape of the fitted curve; partial curves, single points and poor fits give uncertain potencies.

Assay: IkB Signaling
Conditions: ABC-DLBCL IkBa-CBG/CBR dual luciferase ratio (green luciferase fused to IkBa over red control in OCI-Ly3 lymphoma cells), 4 h
Procedure, shortened: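 In this assay, an IκBα–CBG68 fusion accumulates when IKK-driven degradation is blocked; native CBR normalizes for cell number. OCI-Ly3 cells were treated 4 h with compound and doxycycline, then green and red light read after Chroma-Glo addition.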

[1] = measured here: control luc red channel unless noted
[2] = measured here: IkB-luc green channel
[3] = measured here: control luc red channel

COc1ccc(CC(=O)N2CCc3cc(OC)c(OC)cc3C2COc2ccc(F)cc2)cc1OC (configuration not stated)
AC50 [1]: 7.94 µM [falling, single point]

O=C(NCc1ccccc1)c1ccc2oc(=O)n(Cc3ccccc3)c2c1
AC50 [1]: 15.8 µM [falling, single point]

CN(C)c1ccc(NC(=O)CSC2=Nc3ccccc3C3=NC(CCC(=O)NCc4cccs4)C(=O)N23)cc1 (configuration not stated)
AC50 [1]: 15.8 µM [falling, partial curve]

COc1cccc(C(=O)Nc2cccc(C(=O)OCc3cc(=O)n4c(C)csc4n3)c2)c1
AC50 [1]: 0.398 µM [falling, full curve]

Cc1c(C(=O)NC(C)c2ccccc2)sc2nc3n(c(=O)c12)CCCC3 (configuration not stated)
AC50 [1]: 20 µM [falling, partial curve]

COCCNC(=O)c1ccc2c(c1)N=C(C)c1cc(C)ccc1S2
AC50 [2]: 0.794 µM [rising, full curve] | AC50 [3]: 3.98 µM [rising, single point]

Cc1nn2cc(-c3ccccc3)nc2s1
AC50 [1]: 12.6 µM [falling, partial curve]

CCN(CC)CCCNC(=O)c1ccc2c(Cl)c3c(nc2c1)CCCC3
AC50 [1]: 39.8 µM [falling, single point]

COCCCNC(=O)C1CCN(c2cc(C)nc3c(-c4ccc(Cl)cc4)c(C)nn23)CC1
AC50 [1]: 0.794 µM [falling, full curve]

CCCc1ccc(Oc2cn[nH]c2-c2ccc(O)cc2O)cc1
AC50 [1]: 10 µM [falling, partial curve]

CCOC(=O)c1c(Oc2ccc(C(C)=O)cc2)nnc(-c2ccccc2)c1-c1ccccc1
AC50 [1]: 15.8 µM [falling, partial curve]

CCc1nn2c(=O)cc(COC(=O)C(CC)c3ccccc3)nc2s1 (configuration not stated)
AC50 [1]: 10 µM [falling, partial curve]

COc1cccc(-c2cc(C(F)(F)F)nc(NCc3ccco3)n2)c1
AC50 [1]: 25.1 µM [falling, partial curve]

CCCNC(=O)CSc1nc(-c2ccc(OC)cc2)cc(C(F)(F)F)n1
AC50 [1]: 10 µM [rising, partial curve]

CCOC(=O)c1c(-c2ccccc2)oc2ccc(N(C(C)=O)S(=O)(=O)c3ccc(C)cc3)cc12
AC50 [1]: 12.6 µM [falling, partial curve]

O=S(=O)(Nc1nc2ccccc2nc1N1CCN(c2ccccn2)CC1)c1ccc(Cl)cc1
AC50 [1]: 0.0794 µM [falling, full curve]

CCC(=O)N1CCc2cc(Br)cc(S(=O)(=O)CCC(=O)NCCc3ccccc3)c21
AC50 [1]: 0.00631 µM [falling, full curve, poor fit]

O=c1cc(-c2ccccc2)c2ccc3c(c2o1)CN(Cc1ccccc1)CO3
AC50 [1]: 3.16 µM [falling, partial curve]

COc1ccc(NC(=O)N2CCCC(c3nc(-c4ccc(C(C)C)cc4)no3)C2)cc1 (configuration not stated)
AC50 [1]: 20 µM [falling, partial curve]

COc1ccc(-n2nc(C(=O)NCC(=O)NCc3ccco3)c3ccccc3c2=O)cc1Cl
AC50 [1]: 5.01 µM [falling, partial curve]

Cc1nn(-c2ccc(N3CCCCC3)nn2)c(C)c1CCC(=O)NCc1ccc(Cl)cc1
AC50 [1]: 12.6 µM [falling, partial curve]

Cn1c(=O)oc2cc(S(=O)(=O)N3CCC(C(=O)N4CCN(c5ccc(Cl)cc5)CC4)CC3)ccc21
AC50 [1]: 12.6 µM [falling, partial curve]

O=C(Nc1ccc(F)cc1)N1CCN(C/C=C/c2ccccc2)CC1
AC50 [1]: 20 µM [falling, partial curve]

CCOC(=O)c1cc(C)n(CC2CCC(C(=O)Nc3ccc(C(=O)OC)cc3)CC2)c1C (configuration not stated)
AC50 [1]: 2.51 µM [falling, full curve]

CCOc1ccc(-c2oc3cc(Cl)ccc3c(=O)c2O)cc1OC
AC50 [1]: 0.794 µM [rising, full curve]

COc1ccc(-c2ccc(CCC(=O)O)n2-c2ccc(Cl)cc2C)cc1
AC50 [1]: 20 µM [falling, partial curve]

CCN(C(=O)CSc1nc2ccccc2n1CC(=O)Nc1ccc(F)cc1F)c1ccccc1
AC50 [1]: 39.8 µM [falling, single point]

CCN(C(=O)CSc1nc2n[nH]c(C)c2c(=N)n1-c1cccc(OC)c1)c1cccc(C)c1
AC50 [1]: 12.6 µM [falling, partial curve]

CCc1nnc(NC(=O)OCc2ccccc2)s1
AC50 [1]: 10 µM [falling, partial curve]

COc1ccc(C2Oc3nc(SC)nnc3-c3ccccc3N2C(C)=O)cc1 (configuration not stated)
AC50 [1]: 10 µM [falling, partial curve]

COc1ccc(NC(=O)C2CCN(c3cnccn3)CC2)cc1Cl
AC50 [1]: 15.8 µM [falling, single point]

Cc1ccc2[nH]c3c(=O)n(CC(=O)NCCc4ccc(Cl)cc4)ncc3c2c1
AC50 [1]: 20 µM [rising, partial curve]

CC(=NCc1ccco1)c1c(C)[nH]n(-c2nc3ccccc3s2)c1=O
AC50 [1]: 0.00316 µM [falling, full curve]

Cc1cccc(NC(=O)COc2cccc3c(=O)n(C)ccc23)c1C
AC50 [1]: 20 µM [falling, single point]

CCOC(=O)c1cc(-c2ccccc2)n(-c2cccc(C(=O)Nc3cccc(C(C)=O)c3)c2)c1C
AC50 [1]: 3.98 µM [falling, partial curve]

COc1cccc(N2CCN(C(=O)CN3C(=O)COc4ccc(S(=O)(=O)N5CCC(C)CC5)cc43)CC2)c1
AC50 [1]: 20 µM [falling, single point]

Cc1oc2c(c(C)cc3oc(=O)c(CC(=O)NCc4ccccc4)c(C)c32)c1C
AC50 [1]: 39.8 µM [falling, single point]

CCN(CC)S(=O)(=O)c1cccc(C(=O)Nc2nc3cc4c(cc3s2)OCCO4)c1
AC50 [1]: 3.98 µM [falling, full curve]

COc1cccc(-c2nccc(NCCc3c[nH]c4ccc(OC)cc34)n2)c1
AC50 [1]: 3.16 µM [falling, partial curve]

CC1(C)CC(=O)CC(C2(O)C(=O)N(Cc3ccccc3)c3ccccc32)O1 (configuration not stated)
AC50 [2]: 39.8 µM [rising, single point] | AC50 [3]: 25.1 µM [rising, partial curve]
